Source: PubChem BioAssay (NCI)
What follows is the remainder of the data, with few or none of the hits. Active and inactive are the calls of the source. No stated cut-off is given here; in the data, active means growth inhibition above about 70%; inactive means the rest.

Assay: NCI Yeast Anticancer Drug Screen. Data for the mlh1 strain (AID 171);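 further: 0% = growth of vehicle-treated control cultures of the same strain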
Details: S. cerevisiae mlh1 strain growth inhibition, hits give high values
Method: Growth inhibition of yeast strains with defined genetic alterations is measured as a screen for potential anti-cancer activity. Selected strains with alterations in DNA damage repair or cell cycle control were exposed to compounds and growth inhibition was measured relative to vehicle treated controls. The strain used in this assay is mlh1

Measured: growth inhibition

CSC1=NS(=O)(=O)c2cc(C(=O)NN(C)C(=O)c3cc4c(cc3Cl)SC(SC)=NS4(=O)=O)c(Cl)cc2S1
inactive: at 1.2 µM 1% | at 3.7 µM 3% | at 11.0 µM 3% | at 33.0 µM 0% | at 100.0 µM -4%

CN(C)CCNC(=O)c1cc([N+](=O)[O-])cc2ccc(-c3ccccc3)nc12
inactive: at 1.2 µM -3% | at 3.7 µM -2% | at 11.0 µM -1% | at 33.0 µM -2% | at 100.0 µM 3%

CCN(CCO)C(C(=O)c1ccc(-c2ccccc2)cc1)c1ccc(-c2ccccc2)cc1 (stereo not given)
inactive: at 1.2 µM -3% | at 3.7 µM -3% | at 11.0 µM -1% | at 33.0 µM 0% | at 100.0 µM -3%

Cc1ccc(S(=O)(=O)Oc2ccc(C(C)(C)C)cc2)cc1
inactive: at 1.2 µM -3% | at 3.7 µM 1% | at 11.0 µM 1% | at 33.0 µM -7% | at 100.0 µM -2%

COc1ccc(OC)c(/C=C(/C#N)C(N)=O)c1
inactive: at 1.2 µM 6% | at 3.7 µM -2% | at 11.0 µM -6% | at 33.0 µM -3% | at 100.0 µM -1%

O=[N+]([O-])c1ccc(Nc2ccc(O)cc2)c([N+](=O)[O-])c1
inactive: at 1.2 µM -2% | at 3.7 µM 0% | at 11.0 µM 2% | at 33.0 µM 6% | at 100.0 µM 8%

CCOC(=O)NC1CCc2cc(OC)c(OC)c(OC)c2-c2ccc(OC)c(=O)cc21 (stereo not given)
inactive: at 1.2 µM -1% | at 3.7 µM -1% | at 11.0 µM 0% | at 33.0 µM 0% | at 100.0 µM 0%

CCOC1c2cc3c(cc2C(c2cc(OC)c(OC)c(OC)c2)C2C(=O)OCC12)OCO3 (stereo not given)
inactive: at 1.2 µM -2% | at 3.7 µM -4% | at 11.0 µM -3% | at 33.0 µM -2% | at 100.0 µM 54%
